Measured values published in publication doi:10.1101/2020.09.01.277764.

Molecular target: T1, Rabaptin5 (endogenous) (human (endogenous in HeLa and HEK293A)) (UniProt Q15276)
T1 sequence: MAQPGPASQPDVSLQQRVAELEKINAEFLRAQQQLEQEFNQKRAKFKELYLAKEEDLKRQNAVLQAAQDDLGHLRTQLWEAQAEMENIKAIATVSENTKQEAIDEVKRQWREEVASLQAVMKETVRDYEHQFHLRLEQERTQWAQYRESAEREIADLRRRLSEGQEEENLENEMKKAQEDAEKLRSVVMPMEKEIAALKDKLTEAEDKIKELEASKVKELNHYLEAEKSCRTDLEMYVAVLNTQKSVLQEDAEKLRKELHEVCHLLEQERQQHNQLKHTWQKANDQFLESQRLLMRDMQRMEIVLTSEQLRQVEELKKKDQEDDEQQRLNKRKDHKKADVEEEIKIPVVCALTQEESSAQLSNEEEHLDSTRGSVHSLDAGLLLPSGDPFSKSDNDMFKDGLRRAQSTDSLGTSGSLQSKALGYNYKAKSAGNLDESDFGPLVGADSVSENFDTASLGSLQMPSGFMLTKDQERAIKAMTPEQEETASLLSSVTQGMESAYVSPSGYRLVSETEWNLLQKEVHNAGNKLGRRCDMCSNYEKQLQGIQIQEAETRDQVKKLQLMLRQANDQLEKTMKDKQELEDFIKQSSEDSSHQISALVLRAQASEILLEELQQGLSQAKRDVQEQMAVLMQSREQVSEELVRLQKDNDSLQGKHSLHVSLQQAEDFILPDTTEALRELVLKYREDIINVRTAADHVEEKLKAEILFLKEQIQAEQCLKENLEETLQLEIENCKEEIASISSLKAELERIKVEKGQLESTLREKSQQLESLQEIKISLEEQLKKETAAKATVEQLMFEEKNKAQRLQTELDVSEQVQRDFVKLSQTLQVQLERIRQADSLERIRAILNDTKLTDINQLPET
Assay: co-IP

## mCherry-ATG16L1 lacking the WD domain (domain or fragment)
  binding: no binding

These are yes or no findings as the source states them, for the method shown. Binding seen in cells or lysates may run through a third protein.
